Some of the results follow.

Amino acid sequences for entries named in this document (tags omitted). A change or cut given only in a name is not applied to a line headed by its entry.
UniProt Q63HQ0: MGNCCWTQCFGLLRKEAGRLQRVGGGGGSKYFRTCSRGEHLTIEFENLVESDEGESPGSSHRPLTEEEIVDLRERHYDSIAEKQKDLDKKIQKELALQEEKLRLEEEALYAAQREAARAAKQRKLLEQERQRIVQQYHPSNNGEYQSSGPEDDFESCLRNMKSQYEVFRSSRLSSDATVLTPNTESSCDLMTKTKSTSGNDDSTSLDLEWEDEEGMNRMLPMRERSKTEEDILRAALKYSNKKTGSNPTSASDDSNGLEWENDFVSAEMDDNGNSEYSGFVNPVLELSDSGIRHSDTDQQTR
UniProt O95445: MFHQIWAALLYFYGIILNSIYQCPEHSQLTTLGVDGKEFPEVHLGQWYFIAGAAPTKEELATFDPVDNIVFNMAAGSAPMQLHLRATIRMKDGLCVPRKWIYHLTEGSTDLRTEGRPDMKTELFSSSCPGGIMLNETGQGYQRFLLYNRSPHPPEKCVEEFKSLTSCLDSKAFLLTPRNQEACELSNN
UniProt P02749: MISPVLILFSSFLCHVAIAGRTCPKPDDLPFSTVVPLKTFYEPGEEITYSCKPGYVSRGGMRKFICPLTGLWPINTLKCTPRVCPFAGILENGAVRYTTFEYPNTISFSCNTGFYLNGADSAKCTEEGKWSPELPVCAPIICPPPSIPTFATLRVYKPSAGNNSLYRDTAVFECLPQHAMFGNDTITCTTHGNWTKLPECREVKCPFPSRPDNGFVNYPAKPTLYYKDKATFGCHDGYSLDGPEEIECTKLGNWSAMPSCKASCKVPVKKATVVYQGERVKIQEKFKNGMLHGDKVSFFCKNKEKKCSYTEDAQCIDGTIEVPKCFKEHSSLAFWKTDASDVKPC
UniProt Q9UKG1: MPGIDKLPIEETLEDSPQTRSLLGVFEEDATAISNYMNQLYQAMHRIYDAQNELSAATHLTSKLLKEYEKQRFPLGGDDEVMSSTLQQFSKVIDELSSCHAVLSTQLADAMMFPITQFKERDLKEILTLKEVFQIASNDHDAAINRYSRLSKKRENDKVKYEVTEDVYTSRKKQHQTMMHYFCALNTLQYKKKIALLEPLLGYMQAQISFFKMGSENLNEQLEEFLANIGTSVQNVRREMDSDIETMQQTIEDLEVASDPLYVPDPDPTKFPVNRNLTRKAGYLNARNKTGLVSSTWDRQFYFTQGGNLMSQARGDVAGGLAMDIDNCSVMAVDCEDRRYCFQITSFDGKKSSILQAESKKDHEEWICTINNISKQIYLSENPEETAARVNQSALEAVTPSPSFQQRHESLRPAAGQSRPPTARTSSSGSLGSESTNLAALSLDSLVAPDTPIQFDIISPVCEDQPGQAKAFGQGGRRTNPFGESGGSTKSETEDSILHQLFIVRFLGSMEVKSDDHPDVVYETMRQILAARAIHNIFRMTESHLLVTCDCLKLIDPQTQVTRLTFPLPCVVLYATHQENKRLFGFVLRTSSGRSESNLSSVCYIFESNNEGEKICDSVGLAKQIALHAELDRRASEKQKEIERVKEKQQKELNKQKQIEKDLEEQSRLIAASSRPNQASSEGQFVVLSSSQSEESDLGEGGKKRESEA
UniProt Q9UPM8: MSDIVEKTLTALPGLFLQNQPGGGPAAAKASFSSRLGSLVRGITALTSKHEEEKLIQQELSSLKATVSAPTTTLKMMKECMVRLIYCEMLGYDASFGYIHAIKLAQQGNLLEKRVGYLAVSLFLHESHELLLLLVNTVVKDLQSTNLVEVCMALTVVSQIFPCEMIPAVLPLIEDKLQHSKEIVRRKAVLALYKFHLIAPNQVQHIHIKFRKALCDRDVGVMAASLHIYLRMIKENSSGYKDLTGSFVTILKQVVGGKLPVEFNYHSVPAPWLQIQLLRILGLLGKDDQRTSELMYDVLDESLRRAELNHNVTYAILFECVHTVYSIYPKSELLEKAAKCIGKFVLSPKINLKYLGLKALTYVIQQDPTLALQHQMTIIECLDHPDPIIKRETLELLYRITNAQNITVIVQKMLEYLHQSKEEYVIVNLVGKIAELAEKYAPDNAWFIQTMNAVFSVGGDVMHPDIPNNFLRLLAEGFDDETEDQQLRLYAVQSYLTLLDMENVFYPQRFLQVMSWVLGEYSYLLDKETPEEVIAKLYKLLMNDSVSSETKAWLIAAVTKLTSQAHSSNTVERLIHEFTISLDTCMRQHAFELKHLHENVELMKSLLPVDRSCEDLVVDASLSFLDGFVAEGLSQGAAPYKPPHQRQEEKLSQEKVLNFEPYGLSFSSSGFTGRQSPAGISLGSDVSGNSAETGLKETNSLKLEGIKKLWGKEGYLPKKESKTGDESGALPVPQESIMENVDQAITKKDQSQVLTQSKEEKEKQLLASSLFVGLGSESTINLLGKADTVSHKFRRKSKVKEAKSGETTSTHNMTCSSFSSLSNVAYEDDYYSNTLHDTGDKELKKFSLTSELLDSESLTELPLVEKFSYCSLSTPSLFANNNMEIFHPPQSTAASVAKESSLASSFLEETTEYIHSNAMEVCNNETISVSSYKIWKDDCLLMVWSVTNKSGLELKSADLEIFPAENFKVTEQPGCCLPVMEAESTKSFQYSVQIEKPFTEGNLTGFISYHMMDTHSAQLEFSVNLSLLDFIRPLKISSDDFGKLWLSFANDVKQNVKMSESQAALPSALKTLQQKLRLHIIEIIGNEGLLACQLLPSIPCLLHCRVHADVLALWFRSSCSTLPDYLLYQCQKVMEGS
UniProt P20073: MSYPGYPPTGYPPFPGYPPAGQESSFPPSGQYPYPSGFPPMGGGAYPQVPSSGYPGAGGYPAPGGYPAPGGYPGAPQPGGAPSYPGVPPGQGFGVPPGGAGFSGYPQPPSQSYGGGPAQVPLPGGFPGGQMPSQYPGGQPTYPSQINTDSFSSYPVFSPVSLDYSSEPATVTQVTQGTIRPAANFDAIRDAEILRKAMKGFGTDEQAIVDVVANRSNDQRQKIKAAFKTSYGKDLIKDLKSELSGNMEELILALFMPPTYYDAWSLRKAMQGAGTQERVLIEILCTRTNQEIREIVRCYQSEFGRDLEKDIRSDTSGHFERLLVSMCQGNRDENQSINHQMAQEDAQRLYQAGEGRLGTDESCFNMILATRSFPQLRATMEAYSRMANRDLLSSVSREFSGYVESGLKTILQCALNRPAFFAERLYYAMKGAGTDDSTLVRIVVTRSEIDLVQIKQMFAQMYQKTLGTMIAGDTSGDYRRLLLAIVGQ
UniProt P39687: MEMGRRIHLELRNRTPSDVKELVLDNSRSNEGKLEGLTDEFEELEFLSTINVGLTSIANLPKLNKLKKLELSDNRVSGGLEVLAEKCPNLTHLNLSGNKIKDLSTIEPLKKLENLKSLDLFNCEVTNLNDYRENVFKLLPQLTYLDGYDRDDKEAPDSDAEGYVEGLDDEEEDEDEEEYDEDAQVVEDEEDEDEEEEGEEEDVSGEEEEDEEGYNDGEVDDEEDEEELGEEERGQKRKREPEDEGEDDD
UniProt Q8IV38: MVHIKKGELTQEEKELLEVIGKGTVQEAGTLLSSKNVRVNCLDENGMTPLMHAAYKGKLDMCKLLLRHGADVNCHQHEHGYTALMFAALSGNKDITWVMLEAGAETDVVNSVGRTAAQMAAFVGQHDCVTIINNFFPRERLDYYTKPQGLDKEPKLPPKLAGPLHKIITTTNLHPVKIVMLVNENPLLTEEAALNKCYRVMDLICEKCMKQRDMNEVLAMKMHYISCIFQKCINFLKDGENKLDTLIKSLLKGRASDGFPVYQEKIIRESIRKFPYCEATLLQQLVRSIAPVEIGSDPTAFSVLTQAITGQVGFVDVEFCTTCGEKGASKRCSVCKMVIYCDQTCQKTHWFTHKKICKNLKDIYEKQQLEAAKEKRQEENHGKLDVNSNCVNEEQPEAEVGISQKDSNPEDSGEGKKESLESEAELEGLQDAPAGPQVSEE
UniProt Q9BQD7: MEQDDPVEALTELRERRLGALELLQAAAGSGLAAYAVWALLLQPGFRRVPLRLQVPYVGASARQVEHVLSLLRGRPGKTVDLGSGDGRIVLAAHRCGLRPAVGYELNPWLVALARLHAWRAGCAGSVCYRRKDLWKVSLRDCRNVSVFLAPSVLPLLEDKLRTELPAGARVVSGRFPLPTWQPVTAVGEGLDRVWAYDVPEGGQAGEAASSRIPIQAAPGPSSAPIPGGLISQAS
UniProt Q9NP61: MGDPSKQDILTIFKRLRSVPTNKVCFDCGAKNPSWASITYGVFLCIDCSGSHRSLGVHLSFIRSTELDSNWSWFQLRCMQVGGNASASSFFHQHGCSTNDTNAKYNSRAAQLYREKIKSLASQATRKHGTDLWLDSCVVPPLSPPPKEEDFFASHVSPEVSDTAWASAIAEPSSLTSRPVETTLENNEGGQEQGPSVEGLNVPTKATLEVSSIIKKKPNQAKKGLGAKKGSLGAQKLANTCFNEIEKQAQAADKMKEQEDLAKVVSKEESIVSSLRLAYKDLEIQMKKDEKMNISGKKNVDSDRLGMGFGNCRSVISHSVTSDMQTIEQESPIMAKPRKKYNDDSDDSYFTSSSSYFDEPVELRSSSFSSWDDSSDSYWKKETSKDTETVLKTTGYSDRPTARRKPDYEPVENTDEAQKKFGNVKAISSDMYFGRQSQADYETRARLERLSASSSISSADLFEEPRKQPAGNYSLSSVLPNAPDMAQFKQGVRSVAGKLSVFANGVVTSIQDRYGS
UniProt P48444: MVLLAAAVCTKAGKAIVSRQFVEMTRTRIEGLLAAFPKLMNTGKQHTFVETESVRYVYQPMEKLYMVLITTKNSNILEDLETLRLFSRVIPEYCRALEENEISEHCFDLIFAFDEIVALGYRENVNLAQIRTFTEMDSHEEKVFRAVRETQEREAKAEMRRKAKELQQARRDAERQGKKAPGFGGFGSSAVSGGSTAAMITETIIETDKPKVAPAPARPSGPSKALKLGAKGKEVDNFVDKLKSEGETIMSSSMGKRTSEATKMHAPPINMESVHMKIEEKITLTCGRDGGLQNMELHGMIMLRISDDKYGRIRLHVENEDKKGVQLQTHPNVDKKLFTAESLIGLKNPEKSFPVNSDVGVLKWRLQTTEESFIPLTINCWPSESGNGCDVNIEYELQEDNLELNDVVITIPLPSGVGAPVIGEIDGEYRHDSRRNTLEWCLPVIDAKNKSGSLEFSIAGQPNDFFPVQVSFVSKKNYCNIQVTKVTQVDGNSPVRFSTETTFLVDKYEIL
UniProt Q9BTT0: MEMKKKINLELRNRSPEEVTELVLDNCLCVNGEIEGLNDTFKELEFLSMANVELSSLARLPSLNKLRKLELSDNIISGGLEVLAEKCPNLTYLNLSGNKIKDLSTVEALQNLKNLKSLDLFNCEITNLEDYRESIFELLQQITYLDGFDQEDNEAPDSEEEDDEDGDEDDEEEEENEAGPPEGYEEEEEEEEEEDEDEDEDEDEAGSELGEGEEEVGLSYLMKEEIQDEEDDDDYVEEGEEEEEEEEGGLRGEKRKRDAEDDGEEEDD
UniProt Q96CW1: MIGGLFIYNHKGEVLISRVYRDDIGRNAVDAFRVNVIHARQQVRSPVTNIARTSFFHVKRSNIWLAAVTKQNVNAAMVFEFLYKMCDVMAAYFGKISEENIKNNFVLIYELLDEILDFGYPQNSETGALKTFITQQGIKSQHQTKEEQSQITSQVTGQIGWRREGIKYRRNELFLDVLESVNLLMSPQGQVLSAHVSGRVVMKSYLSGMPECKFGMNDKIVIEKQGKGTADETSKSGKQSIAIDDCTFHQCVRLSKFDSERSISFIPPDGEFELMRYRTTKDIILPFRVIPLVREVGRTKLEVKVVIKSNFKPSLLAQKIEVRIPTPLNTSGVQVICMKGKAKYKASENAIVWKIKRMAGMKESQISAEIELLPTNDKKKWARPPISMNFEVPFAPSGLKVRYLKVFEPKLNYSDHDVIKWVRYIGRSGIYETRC
UniProt P13798: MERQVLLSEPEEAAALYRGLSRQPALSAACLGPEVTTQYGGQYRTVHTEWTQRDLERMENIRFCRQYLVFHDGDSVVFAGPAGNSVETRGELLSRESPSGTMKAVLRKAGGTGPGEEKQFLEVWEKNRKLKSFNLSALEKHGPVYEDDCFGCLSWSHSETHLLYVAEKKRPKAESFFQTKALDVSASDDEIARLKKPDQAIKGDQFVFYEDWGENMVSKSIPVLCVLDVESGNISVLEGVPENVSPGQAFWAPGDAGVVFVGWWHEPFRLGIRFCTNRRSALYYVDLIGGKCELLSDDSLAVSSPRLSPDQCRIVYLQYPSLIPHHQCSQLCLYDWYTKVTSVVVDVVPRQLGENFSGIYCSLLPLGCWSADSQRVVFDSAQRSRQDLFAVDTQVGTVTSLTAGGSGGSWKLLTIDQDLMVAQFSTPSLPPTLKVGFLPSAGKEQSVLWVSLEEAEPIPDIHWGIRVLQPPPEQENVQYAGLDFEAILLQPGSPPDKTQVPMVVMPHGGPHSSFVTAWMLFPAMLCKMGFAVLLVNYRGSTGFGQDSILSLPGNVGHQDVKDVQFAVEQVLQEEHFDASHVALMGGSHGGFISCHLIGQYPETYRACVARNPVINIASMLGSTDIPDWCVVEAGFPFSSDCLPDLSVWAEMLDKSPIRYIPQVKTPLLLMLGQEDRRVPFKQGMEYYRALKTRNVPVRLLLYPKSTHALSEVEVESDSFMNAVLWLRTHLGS

For 35 targets, log2 fold change results are on record in the supplement of paper PMC10849652.

Compound in the first assay: Cc1sc2c(c1C)C(c1ccc(Cl)cc1)=N[C@@H](CC(=O)OC(C)(C)C)c1nnc(C)n1-2
Briefly: log2 fold change, soluble protein after heating vs DMSO (PISA); higher = thermal stabilisation; K562 cells, 10 uM, 30 min; active = over 0.2 and 3.5 SD of the protein, either way, in both replicates (recomputed). Put shortly: (§1)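 Soluble protein was defined as the supernatant after 21,000xg for 90 min. It came from K562 cells at 2×10^6 cells/mL given 10 μM compound for 30 min, heated in aliquots for 3 min across 48°C-58°C, pooled, and extracted in PBS with 0.5% NP-40 at 4°C, and was quantified by TMTpro 16plex LC-MS/MS with equalised channel sums. Thermal stability against control samples, from duplicates, is reported as log2 fold change.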
As to AP1AR (UniProt Q63HQ0), the log2 fold change was inactive: -0.002.
With ARHGAP17 (UniProt Q68EM7), the log2 fold change was inactive: -0.093.
Turning to ANKRD49 (UniProt Q8WVL7), the log2 fold change is inactive: 0.003.
Consider ARFRP1 (UniProt Q13795), for which the log2 fold change is inactive: -0.021.
The same measure, in the same setting: for ANKRD29 (UniProt Q8N6D5) the value was inactive: -0.029; for APOM (UniProt O95445), inactive: 0.072.
As for ARHGAP25 isoform 4 (UniProt P42331), the log2 fold change is inactive: -0.018.
On to ANXA4 (UniProt P09525), for which the log2 fold change is inactive: 0.025.
In the case of APOH (UniProt P02749), the log2 fold change was inactive: -0.051.
Regarding APPL1 (UniProt Q9UKG1), the log2 fold change was inactive: -0.025.
For the target ANTXR2 isoform 4 (UniProt P58335), the log2 fold change is inactive: 0.017.
Still for that read-out and setting: for AP2S1 (UniProt P53680) the value was inactive: 0.037.
Regarding ARHGEF7 isoform 5 (UniProt Q14155), the log2 fold change was inactive: -0.047.
For the target AP4E1 (UniProt Q9UPM8), the log2 fold change was inactive: -0.059.
Take ARG2 (UniProt P78540): the log2 fold change is inactive: 0.025.
For the target ANXA7 (UniProt P20073), the log2 fold change is inactive: -0.009.
APLP2 (UniProt Q06481): the log2 fold change is inactive: 0.036.
In the case of ARFGAP2 (UniProt Q8N6H7), the log2 fold change was inactive: -0.033.
For the target ANP32A (UniProt P39687), the log2 fold change was inactive: -0.005.
As to ARF5 (UniProt P84085), the log2 fold change is inactive: -0.024.
Same read-out and setting: then ARFGAP1 (UniProt Q8N6T3), with inactive: -0.064; and ANKMY2 (UniProt Q8IV38), with inactive: -0.021; and ANTKMT (UniProt Q9BQD7), with inactive: -0.162.
In the case of AP3M1 (UniProt Q9Y2T2), the log2 fold change was inactive: -0.031.
Take ARFGAP3 (UniProt Q9NP61): the log2 fold change is inactive: -0.06.
On to ARCN1 (UniProt P48444), for which the log2 fold change was inactive: -0.033.
ARHGEF2 (UniProt Q92974): the log2 fold change is inactive: 0.224.
For ANP32E (UniProt Q9BTT0), the log2 fold change was inactive: -0.012.
Regarding AP2A1 (UniProt O95782), the log2 fold change is inactive: 0.047.
Same read-out and setting: then AP2A2 isoform 2 (UniProt O94973), with inactive: 0.048.
With ARHGAP45 isoform 2 (UniProt Q92619), the log2 fold change was inactive: 0.04.
For AP2M1 (UniProt C9JTK4), the log2 fold change is inactive: 0.136.
Regarding ARGLU1 (UniProt Q9NWB6), the log2 fold change was inactive: 0.01.
Same read-out and setting: for AP2M1 (UniProt Q96CW1) the value was inactive: 0.006; for APEH (UniProt P13798), inactive: -0.004.

Compound in a further assay: c1ccc([C@@H]2C[C@H]2NC2CCNCC2)cc1
Described as above. Put shortly: as §1
Regarding AP1AR (UniProt Q63HQ0), the log2 fold change is inactive: 0.038.
Regarding ARHGAP17 (UniProt Q68EM7), the log2 fold change is inactive: -0.155.
Consider ANKRD49 (UniProt Q8WVL7), for which the log2 fold change is inactive: 0.035.
With ARFRP1 (UniProt Q13795), the log2 fold change was inactive: 0.029.
For the target ANKRD29 (UniProt Q8N6D5), the log2 fold change was inactive: -0.079.
The same measure, in the same setting: then APOM (UniProt O95445), with inactive: 0.18; and ARHGAP25 isoform 4 (UniProt P42331), with inactive: 0.109; and ANXA4 (UniProt P09525), with inactive: -0.019.
On the same count and under the same terms, then APOH (UniProt P02749), with inactive: 0.199.
As for APPL1 (UniProt Q9UKG1), the log2 fold change was inactive: -0.049.
As for ANTXR2 isoform 4 (UniProt P58335), the log2 fold change was inactive: 0.044.
Consider AP2S1 (UniProt P53680), for which the log2 fold change was inactive: 0.043.
Consider ARHGEF7 isoform 5 (UniProt Q14155), for which the log2 fold change is inactive: 0.093.
On to AP4E1 (UniProt Q9UPM8), for which the log2 fold change was inactive: -0.18.
The same measure, in the same setting: for ARG2 (UniProt P78540) the value was inactive: 0.044.
Consider ANXA7 (UniProt P20073), for which the log2 fold change is inactive: 0.
With APLP2 (UniProt Q06481), the log2 fold change is inactive: 0.038.
For ARFGAP2 (UniProt Q8N6H7), the log2 fold change is inactive: 0.006.
For ANP32A (UniProt P39687), the log2 fold change was inactive: -0.047.
ARF5 (UniProt P84085): the log2 fold change was inactive: -0.008.
Consider ARFGAP1 (UniProt Q8N6T3), for which the log2 fold change is inactive: -0.034.
As for ANKMY2 (UniProt Q8IV38), the log2 fold change was inactive: -0.031.
ANTKMT (UniProt Q9BQD7): the log2 fold change was inactive: -0.127.
With AP3M1 (UniProt Q9Y2T2), the log2 fold change is inactive: 0.016.
For the target ARFGAP3 (UniProt Q9NP61), the log2 fold change was inactive: 0.
As for ARCN1 (UniProt P48444), the log2 fold change is inactive: 0.001.
The same measure, in the same setting: for ARHGEF2 (UniProt Q92974) the value was inactive: -0.014; for ANP32E (UniProt Q9BTT0), inactive: 0.075; for AP2A1 (UniProt O95782), inactive: -0.005.
Turning to AP2A2 isoform 2 (UniProt O94973), the log2 fold change is inactive: 0.028.
Take ARHGAP45 isoform 2 (UniProt Q92619): the log2 fold change was inactive: -0.037.
As for AP2M1 (UniProt C9JTK4), the log2 fold change was inactive: -0.076.
Consider ARGLU1 (UniProt Q9NWB6), for which the log2 fold change is inactive: 0.096.
Still for that read-out and setting: then AP2M1 (UniProt Q96CW1), with inactive: 0.009.
For APEH (UniProt P13798), the log2 fold change is inactive: 0.012.
